From paper PMC2835750, “A Direct Interaction with NEDD1 Regulates γ-Tubulin Recruitment to the Centrosome” (PLoS ONE, 2010)
Results are given in words; binding and its absence hold for the method and conditions named. Binding seen in cells or lysates may run through a third protein. For some of these results: Binding calls can cover weak binding; strength is not graded here.

By UniProt entry, the sequences of proteins in these tests, tags left out. Where a name states a change or a piece, a line headed by the entry shows the natural chain unless it says otherwise. Chains listed by the source or under a name are the forms on record and can include a tag or linker. Residues count along the entry.
UniProt Q8NHV4: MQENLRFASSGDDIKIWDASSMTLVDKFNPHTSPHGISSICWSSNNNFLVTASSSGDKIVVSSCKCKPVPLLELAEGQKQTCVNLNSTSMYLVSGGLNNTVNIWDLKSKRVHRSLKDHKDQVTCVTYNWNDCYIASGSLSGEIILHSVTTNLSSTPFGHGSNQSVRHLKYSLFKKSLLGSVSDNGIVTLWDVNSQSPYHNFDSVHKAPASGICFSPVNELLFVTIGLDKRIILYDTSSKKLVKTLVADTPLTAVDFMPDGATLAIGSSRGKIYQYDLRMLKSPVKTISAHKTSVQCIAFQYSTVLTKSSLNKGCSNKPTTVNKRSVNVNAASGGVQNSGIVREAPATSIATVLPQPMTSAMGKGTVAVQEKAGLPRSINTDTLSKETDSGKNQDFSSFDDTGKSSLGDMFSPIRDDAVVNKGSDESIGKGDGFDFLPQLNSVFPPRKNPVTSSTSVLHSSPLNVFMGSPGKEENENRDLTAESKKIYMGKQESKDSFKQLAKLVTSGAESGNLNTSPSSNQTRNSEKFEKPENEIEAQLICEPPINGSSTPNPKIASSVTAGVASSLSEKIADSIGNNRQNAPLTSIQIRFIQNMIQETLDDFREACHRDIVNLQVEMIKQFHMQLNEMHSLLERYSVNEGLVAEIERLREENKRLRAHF
GFP-NEDD1 (1–571): residues 1-571 of Q8NHV4
GFP-NEDD1 CTD (572–660): residues 572-660 of Q8NHV4
GFP-NEDD1 (572–634): residues 572-634 of Q8NHV4
GFP-NEDD1 (586–660): residues 586-660 of Q8NHV4
GFP-NEDD1 (residues 599–660): residues 599-660 of Q8NHV4
GFP-NEDD1 (611–660): residues 611-660 of Q8NHV4
GFP-NEDD1 (635–660): residues 635-660 of Q8NHV4
GFP-NEDD1 CTD Y636A/S637A (Q8NHV4, form named): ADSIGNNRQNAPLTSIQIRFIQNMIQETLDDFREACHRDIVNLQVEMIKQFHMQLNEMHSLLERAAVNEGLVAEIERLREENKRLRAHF
GFP-NEDD1 CTD E634A/R635A (Q8NHV4, form named): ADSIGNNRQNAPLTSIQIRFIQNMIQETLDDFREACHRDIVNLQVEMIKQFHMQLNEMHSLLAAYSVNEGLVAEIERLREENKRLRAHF
GFP-NEDD1 CTD N639A/E640A (Q8NHV4, form named): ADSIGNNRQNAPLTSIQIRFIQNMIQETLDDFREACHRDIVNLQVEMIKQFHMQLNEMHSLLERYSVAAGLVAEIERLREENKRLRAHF
UniProt P23258: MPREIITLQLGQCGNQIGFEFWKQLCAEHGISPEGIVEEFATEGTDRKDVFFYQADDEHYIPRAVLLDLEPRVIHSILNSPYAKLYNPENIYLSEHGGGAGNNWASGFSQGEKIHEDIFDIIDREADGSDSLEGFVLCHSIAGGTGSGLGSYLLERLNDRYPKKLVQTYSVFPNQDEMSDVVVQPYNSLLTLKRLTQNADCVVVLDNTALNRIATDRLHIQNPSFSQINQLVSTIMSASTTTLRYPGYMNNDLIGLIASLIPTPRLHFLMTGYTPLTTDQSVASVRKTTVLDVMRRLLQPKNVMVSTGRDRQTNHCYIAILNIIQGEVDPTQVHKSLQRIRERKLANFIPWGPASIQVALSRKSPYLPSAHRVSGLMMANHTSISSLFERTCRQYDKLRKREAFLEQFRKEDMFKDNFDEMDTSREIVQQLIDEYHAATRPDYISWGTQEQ

What was measured:
[1] = biological target: GST-NEDD1 CTD (residues 572–660) (human) (UniProt Q8NHV4); assay: pull-down; GST or GST-NEDD1 CTD on glutathione sepharose beads, 2.5 µg purified His-γ-tubulin, with or without 50 µg pre-cleared HEK293T lysate, overnight at 4°C, NTEN buffer (20 mM Tris pH 7.4, 0.1 mM EDTA, 100 mM NaCl, 0.5% NP-40); both purified
[2] = biological target: GST-NEDD1 CTD (residues 572–660) (human) (UniProt Q8NHV4); assay: pull-down; GST or GST-NEDD1 CTD on glutathione sepharose beads, endogenous γ-tubulin from 50 µg pre-cleared HEK293T lysate, overnight at 4°C, NTEN buffer; only the target purified
[3] = biological target: Myc-NEDD1 full length (660 aa) (human) (UniProt Q8NHV4); assay: co-IP; Myc-NEDD1 constructs transfected into HEK293T, immunoprecipitated with Myc antibody, blotted for endogenous γ-tubulin
[4] = biological target: Myc-NEDD1 (1–571) (human) (UniProt Q8NHV4); assay: as above
[5] = biological target: Myc-NEDD1 full length L656Q (human) (UniProt Q8NHV4); assay: as above
[6] = biological target: Myc-NEDD1 (572–660) (human) (UniProt Q8NHV4); assay: as above
[7] = biological target: Myc-NEDD1 full length L649Q (human) (UniProt Q8NHV4); assay: as above
[8] = biological target: GFP-NEDD1 (586–660) (human) (UniProt Q8NHV4); assay: co-IP; GFP-NEDD1 constructs transfected into HEK293T, immunoprecipitated with GFP antibody, blotted for endogenous γ-tubulin
[9] = biological target: GFP-NEDD1 CTD Y636A/S637A (human) (UniProt Q8NHV4); assay: as above
[10] = biological target: GFP-NEDD1 (572–634) (human) (UniProt Q8NHV4); assay: as above
[11] = biological target: GFP-NEDD1 (635–660) (human) (UniProt Q8NHV4); assay: as above
[12] = biological target: GFP-NEDD1 (1–571) (human) (UniProt Q8NHV4); assay: as above
[13] = biological target: GFP-NEDD1 CTD E634A/R635A (human) (UniProt Q8NHV4); assay: as above
[14] = biological target: GFP-NEDD1 (611–660) (human) (UniProt Q8NHV4); assay: as above
[15] = biological target: GFP-NEDD1 CTD (572–660) (human) (UniProt Q8NHV4); assay: as above
[16] = biological target: GFP-NEDD1 (residues 599–660) (human) (UniProt Q8NHV4); assay: as above
[17] = biological target: GFP-NEDD1 CTD N639A/E640A (human) (UniProt Q8NHV4); assay: as above
[18] = biological target: GFP-NEDD1 full length (1–660) (human) (UniProt Q8NHV4); assay: as above
[19] = biological target: NEDD1 (endogenous) (human (endogenous in HEK293T)) (UniProt Q8NHV4); assay: co-IP; endogenous proteins, HEK293T lysate, immunoprecipitated with NEDD1 antibody, blotted for γ-tubulin

Substance	binding [1]	binding [2]	binding [3]	binding [4]	binding [5]	binding [6]	binding [7]	binding [8]	binding [9]	binding [10]	binding [11]	binding [12]	binding [13]	binding [14]	binding [15]	binding [16]	binding [17]	binding [18]	binding [19]
His-tagged γ-tubulin (from UniProt P23258)	binds																		
γ-tubulin (endogenous) (from UniProt P23258)		binds	binds	no binding	binds	binds	binds	binds	no binding	no binding	no binding	no binding	binds	no binding	binds	binds	no binding	binds	binds
